Hit rate of the full screen: of about 320,000 compounds, about 2,100 (0.66%) were called active. Inconclusive results, whose numbers are uncertain, are shown with a selection of clear calls. Calls come from the whole dose curve; as a rule, active = well fitted inhibition curve with a large enough effect in the signal ratio, with a control signal flat (not every such curve was filed as active); inconclusive = small, poorly fitted or top-dose-only effect, or effect the other way, or a change in a side signal; inactive = flat fitted curve, though single readings scatter; the % refers to the signal ratio. A potency beside an inconclusive call is a rough fit, not a confirmed value.
Assay: qHTS Assay for Lipid Storage Modulators in Drosophila S3 Cells
Settings: BODIPY lipid droplet fluorescence, 18-24 h, cells fed with added oleic acid; lipid storage change, negative = inhibition: at 46.1 µM (top of the series) unless noted
How it was run: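 Laser-scanning cytometry quantifies lipid droplet accumulation (500–530 nm total intensity; droplet/cell object ratio) in oleic acid-fed (400 uM added) Drosophila S3 cells treated with a concentration series. 20 uM Triacsin C defined 100% inhibition.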
% is set by controls: 0 for no effect and ±100 for the full control effect; potency is the fitted concentration of half-maximal effect.

Lipid storage change, negative = inhibition, inconclusive:
Cc1ccccc1NC(=O)Cc1nnc(SCC(=O)NC2CCCCC2)n1C 143%
Cn1c(N2CCCC2)nc2c1c(=O)n(Cc1cccc(F)c1)c(=O)n2C -21%
CC(C)(C)c1cc(C(=O)NCCN2CCCC2)cc(C(C)(C)C)c1 -33.4% [at 0.369 µM]
O=C(NCCCCCNC(=O)c1ccccn1)c1ccccn1 5.5%
O=S(=O)(CCN1CCN(C(c2ccccc2)c2ccccc2)CC1)C(F)(F)F -16.2%
O=C(Cn1ncc2c(=O)oc3ccccc3c21)N1CCCc2ccccc21 11.9%
O=C(NCc1ccco1)c1cccc(NS(=O)(=O)c2cccc(F)c2)c1 -90.8%
Cc1nnc2ccc(-c3cccc(NS(=O)(=O)c4ccccc4[N+](=O)[O-])c3)nn12
O=C(Nc1ccccc1)c1cc2ccccc2c(=O)s1 17.2%
CCN(CC)S(=O)(=O)c1cccc(-c2nnc(SCCOc3ccccc3)o2)c1 22.9% [at 9.22 µM]
COc1ccccc1OCCCCn1c(C(C)O)nc2ccccc21 (centres undefined) -100%
Cc1ccc(/C=C/C(=O)NCc2cccs2)o1 7.91%
Cc1ccc2sc(N(CCCN(C)C)C(=O)c3ccc(S(=O)(=O)N(C)C)cc3)nc2c1C -18.6%
COc1ccc(N(CC(=O)Nc2ccc(C)cc2C)S(=O)(=O)c2c(C)n[nH]c2C)cc1 17%
CC1CN(C(=O)Nc2ccc(Br)cc2Cl)CC(C)O1 (centres undefined) -0.736%
COc1ccc(C2=Nn3c(nnc3C(F)(F)F)SC2)cc1 3.04%
COc1cc2c(cc1OC)[C@@H]1O[C@](CCCCN3C(=O)c4ccccc4C3=O)(C2)Oc2cc(C)n(-c3ccccc3)c(=O)c21 -24.8% [at 9.22 µM]
Cc1cc(C(=O)Nc2ccc3c(c2)OCCO3)c(C)o1 22.5%
O=C(Nc1ccc(N2CCCC2)cc1)c1cccc(Cl)c1 7.41%
Cc1ccc(C(=O)Nc2ccc(N3CCN(C)CC3)cc2)cc1 -32.8%
Cc1ccc(S(=O)(=O)N2CCCN(C(=O)CNC(=O)c3ccccc3)CC2)cc1
Cc1cc(NS(=O)(=O)c2ccc(NC(=O)Nc3ccc4c(c3)OCO4)cc2)no1 14%
COc1cccc(C2CC(C(F)(F)F)n3nc(C(=O)NCc4cccnc4)cc3N2)c1 (centres undefined) 143%
Cc1ccc(-c2cnc3c(Cl)c(C)nn3c2)cc1 -7.14%
O=C(NNc1ccc([N+](=O)[O-])cc1)c1ccccc1Cl 22.1%
CSc1ccc(C#N)cc1NC(=O)c1ccccc1 35.2%
CN1CCN(c2oc(-c3ccccc3Cl)nc2S(=O)(=O)c2ccccc2)CC1 74.8%
Clc1ccc(-c2csc(-c3ccno3)n2)cc1 13.3%
O=C(CCc1nnc(COc2ccccc2)o1)NCCc1cccs1 -26.3%
CCc1c(C)nc(SCC(=O)NC2CCCC2)[nH]c1=O -41.1%
COc1ccc(OC)c(C2=NS(=O)(=O)N(C)C(C(=O)Nc3ccc(C(C)=O)cc3)=C2)c1 53.1%
CN(C(=O)Nc1ccccc1)C1CCCc2ccccc21 (centres undefined) -130%
COc1ccc(-c2nc(SCC(=O)Nc3c(F)cccc3F)n[nH]2)cc1 21.3%

Fetched one by one from above (four):
Lipid storage change, negative = inhibition, inconclusive:
CN(C(=O)Nc1ccccc1)C1CCCc2ccccc21 (centres undefined) -130%
Cc1ccc2sc(N(CCCN(C)C)C(=O)c3ccc(S(=O)(=O)N(C)C)cc3)nc2c1C -18.6%
O=C(NCCCCCNC(=O)c1ccccn1)c1ccccn1 5.5%
O=C(Cn1ncc2c(=O)oc3ccccc3c21)N1CCCc2ccccc21 11.9%

Following part.

Lipid storage change, negative = inhibition, inactive:
CN(C)S(=O)(=O)c1cccc(NC(=O)c2cncc(Br)c2)c1 8.64%
Cc1cc(C)c(NC(=O)c2cc(C(=O)O)ccc2C(=O)O)c([N+](=O)[O-])c1 2.67%

Potency, inconclusive:
COc1cc2nc(CC(C)C)n(NC(=O)c3ccccc3)c(=O)c2cc1OC 2310 nM [activator, single point]
CCn1c(C)nc2cc(C(=O)N=Nc3c(O)[nH]c4ccccc34)ccc21 3660 nM [activator, partial curve]
CCCN1CCC(NC(=O)Cc2ccccc2OC)CC1 29100 nM [activator, single point]
CC(OC(=O)c1ccc([N+](=O)[O-])o1)C(=O)NC1CCCCC1C (centres undefined) 29100 nM [falling, single point]
COc1cc2c(cc1OC)C1O[C@](CCCCN3C(=O)c4ccccc4C3=O)(C2)Oc2cc(C)n(Cc3ccccc3)c(=O)c21 944 nM [falling, partial curve, poor fit]
COc1ccccc1C(C)NS(=O)(=O)c1cccs1 (centres undefined) 6.5 nM [falling, full curve, poor fit]
COc1ccccc1C(=O)Nc1sc2c(c1C#N)CCC2 116 nM [falling, full curve]
CCn1c(NN)nc2sc3c(c2c1=O)CCC3 1840 nM [rising, full curve]
CCc1ccc(N(C(=O)c2snc(C(N)=O)c2N)C(C(=O)NCC2CCCO2)c2ccco2)cc1 (centres undefined) 3260 nM [activator, single point]
O=C(CN(Cc1ccccc1)C(=O)c1cc2c(s1)CCC2)NCc1cccs1 18400 nM [falling, single point]
COC(=O)CC(NC(=O)c1ccco1)c1ccc(C(C)C)cc1 (centres undefined) 6510 nM [falling, single point]
CCOC(=O)Cn1cc(C(=O)c2cccs2)c2ccccc21 580 nM [activator, partial curve]
COc1ccc(C(=O)/C=C/c2ccc(OCc3ccccc3)cc2)cc1CSCC(=O)O 29100 nM [activator, single point]
O=c1c2nnn(Cc3ccc(Cl)cc3)c2ncn1Cc1ccc(F)cc1 1300 nM [activator, partial curve]

— PubChem BioAssay AID2685 (National Center for Advancing Translational Sciences (NCATS), 2010)
